PubChem BioAssay AID652243, Drosophila RNAi Screening Center, 2013
The deposit covers about 24,000 reagents; shown is an unselected part of those with a known target gene and a result. In the full data, 246 (1%) were called active. 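Plates not normalised; calls are printed but the firefly/Renilla ratio behind them is not deposited; fold cut for lowering reported inconsistently.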 The raw values are shown without normalisation. Names joined by + are all predicted targets of the reagent. Not given: the amount of reagent.

Aim: 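Knock-downs that decrease or increase androgen receptor reporter signal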 (primary screen)
Cell system: Drosophila S2R+ cells
Reagents: long dsRNA against Drosophila genes
Time to read-out: 72 h (48 h, then 24 h hormone)
Conditions: synthetic androgen R1881 at 10 nM for 24 h
Detection: 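Per-well raw luminescence of the androgen-driven firefly reporter and of the Renilla control, two replicates each, without normalisation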
Direction: firefly reporter light: higher = more light from androgen-responsive reporter; Renilla control light: higher = more constitutive control signal (cell number, transfection)
Call rule: 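Hit when the log firefly-to-Renilla ratio dropped or increased by a fixed fold versus the mean of GFP or LacZ controls across duplicate plates; lowering cut given as 1.5 and as 3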
Meaning of the calls: active = hit: reporter lowered or raised; inactive = no hit

Gene | dsRNA | firefly reporter light, replicate 1 | firefly reporter light, replicate 2 | Renilla control light, replicate 1 | Renilla control light, replicate 2 | call
Roe1 | DRSC07534 | 8.83e5 | 9.67e5 | 8.73e5 | 9.54e5 | inactive
Roe1 | DRSC26435 | 1.60e5 | 1.30e5 | 3.19e5 | 2.04e5 | inactive
Roe1 | DRSC38972 | 9.68e5 | 1.08e6 | 1.42e6 | 1.61e6 | inactive
CG2104 | DRSC12304 | 42474 | 48438 | 1.43e6 | 1.25e6 | inactive
CG2104 | DRSC36916 | – | – | – | – | inactive
Chpf | DRSC19491 | 4.11e5 | 4.35e5 | 2.94e6 | 2.17e6 | inactive
Chpf | DRSC19893 | 1.43e5 | 1.60e5 | 1.04e6 | 8.41e5 | inactive
Ilp6 | DRSC17906 | 4.09e5 | 4.34e5 | 4.53e6 | 2.91e6 | inactive
PIG-O | DRSC06123 | 4.27e5 | 3.74e5 | 5.24e5 | 5.28e5 | inactive
CG13426 | DRSC06388 | 1.25e5 | 1.64e5 | 1.73e6 | 2.12e6 | inactive
Aatf | DRSC02131 | 1.58e5 | 1.61e5 | 1.62e6 | 1.47e6 | inactive
Aatf | DRSC29405 | 6.39e5 | 7.16e5 | 1.01e6 | 1.01e6 | inactive
MED10 | DRSC10474 | 1.95e5 | 1.81e5 | 1.79e6 | 1.41e6 | inactive
CG14756 | DRSC06491 | 1.58e5 | 1.40e5 | 1.02e6 | 8.08e5 | inactive
CG14756 | DRSC24808 | 1.06e6 | 1.37e6 | 8.27e5 | 8.68e5 | inactive
del | DRSC03170 | 8.30e5 | 6.99e5 | 2.34e6 | 1.65e6 | inactive
GCS1 | DRSC19744 | 80562 | 78949 | 4.82e5 | 5.43e5 | inactive
GCS1 | DRSC25625 | 8.48e5 | 9.09e5 | 5.87e5 | 7.11e5 | inactive
CG17199 | DRSC15192 | 2.50e5 | 3.02e5 | 2.74e6 | 2.75e6 | inactive
RhoGAP68F | DRSC10717 | 6.02e5 | 5.73e5 | 1.08e6 | 1.61e6 | inactive
CG9962 | DRSC00739 | 86898 | 1.07e5 | 8.00e5 | 6.55e5 | inactive
CG9962 | DRSC27772 | 2.63e5 | 2.16e5 | 5.71e5 | 5.59e5 | inactive
CG34354 | DRSC15645 | 2.11e5 | 1.62e5 | 3.04e6 | 3.03e6 | inactive
CG34354 | DRSC23054 | 6.88e5 | 7.61e5 | 1.34e6 | 1.47e6 | inactive
Rpp25 | DRSC05002 | 3.49e5 | 2.49e5 | 2.17e6 | 1.67e6 | inactive
Trmt112 | DRSC11685 | 3.72e5 | 3.44e5 | 3.50e6 | 3.58e6 | inactive
CG14229 | DRSC19585 | 21589 | 20349 | 1.66e5 | 1.40e5 | inactive
CG14229 | DRSC23149 | 6.60e5 | 8.70e5 | 1.47e6 | 1.70e6 | inactive
Dtd | DRSC15362 | 1.04e5 | 1.56e5 | 1.56e6 | 2.31e6 | inactive
CG3222 | DRSC10355 | 2.29e5 | 1.96e5 | 2.15e6 | 2.43e6 | inactive
CNBP | DRSC04116 | 2.73e5 | 2.73e5 | 1.86e6 | 1.40e6 | inactive
CNBP | DRSC21317 | 3.23e5 | 3.37e5 | 1.40e6 | 1.42e6 | inactive
CNBP | DRSC29556 | 3.80e5 | 5.86e5 | 6.93e5 | 6.93e5 | inactive
CG8888 | DRSC07294 | 8.27e5 | 7.97e5 | 1.26e6 | 9.42e5 | inactive
CG8888 | DRSC07295 | 7.05e5 | 4.38e5 | 2.04e6 | 2.46e6 | inactive
zpg | DRSC09702 | 2.41e5 | 2.37e5 | 2.78e6 | 2.81e6 | inactive
zpg | DRSC26258 | 2.83e5 | 3.45e5 | 6.00e5 | 6.11e5 | inactive
CG32102 | DRSC22015 | 9.56e5 | 7.42e5 | 1.97e6 | 1.33e6 | inactive
CG30391 | DRSC21572 | 7.72e5 | 7.78e5 | 1.58e6 | 1.32e6 | inactive
hdly | DRSC15849 | 2.90e5 | 3.92e5 | 3.23e6 | 2.99e6 | inactive
CG12438 | DRSC02167 | 2.06e5 | 1.06e5 | 1.36e6 | 1.07e6 | inactive
CG7164 | DRSC03018 | 1.73e5 | 1.85e5 | 1.73e6 | 1.51e6 | inactive
CG7164 | DRSC28704 | 4.12e5 | 3.40e5 | 1.12e6 | 8.42e5 | inactive
Pof | DRSC04405 | 7.51e5 | 6.19e5 | 1.73e6 | 1.26e6 | inactive
Hip14 | DRSC10570 | 55561 | 26376 | 4.17e5 | 3.02e5 | inactive
CG8526 | DRSC16438 | 1.61e5 | 1.21e5 | 1.99e6 | 1.80e6 | inactive
CG8526 | DRSC26422 | 4.06e5 | 4.85e5 | 5.82e5 | 5.79e5 | inactive
Mesh1 | DRSC14433 | 1.13e5 | 1.14e5 | 1.35e6 | 2.34e6 | inactive
Npc2b | DRSC15464 | 1.42e5 | 1.53e5 | 2.13e6 | 2.08e6 | inactive
lncRNA:CR42491 + RpL22 | DRSC25025 | 1.35e5 | 89852 | 6.24e5 | 2.79e5 | inactive
hep | DRSC19839 | 2.71e5 | 3.20e5 | 3.05e6 | 3.19e6 | inactive
hep | DRSC20337 | 6.08e5 | 8.44e5 | 4.97e6 | 5.55e6 | inactive
hep | DRSC26331 | 2.40e5 | 2.53e5 | 5.54e5 | 5.82e5 | inactive
hep | DRSC36660 | – | – | – | – | inactive
PPO1 | DRSC05929 | 1.54e6 | 6.89e5 | 1.38e6 | 6.76e5 | inactive
Ir68a | DRSC10599 | 3.32e5 | 2.58e5 | 2.55e6 | 2.17e6 | inactive
CG3213 | DRSC00576 | 4.39e5 | 5.54e5 | 8.36e5 | 1.07e6 | inactive
CG3213 | DRSC25106 | 6.80e5 | 5.73e5 | 6.98e5 | 6.43e5 | inactive
